Test results from PubChem BioAssay AID2517 (National Center for Advancing Translational Sciences (NCATS), 2010).
About 1,200 (0.34%) of roughly 350,000 compounds were called active. The inconclusive results got no clear call from the source; some entries with a clear call stand among them for comparison. The call rests on the fitted dose curve; in most records, active means well fitted inhibition curve with a large enough effect; inconclusive means small, poorly fitted or top-dose-only effect; inactive means no such curve, though single readings can be large or run the other way. A potency beside an inconclusive call is a rough fit, not a confirmed value.
Further: nearly all actives have a fitted effect of over 55% in size.
Potency means the concentration at half of the fitted maximal effect.
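Wherever activity change, negative = inhibition is given: plate controls were vehicle for no effect and reference inhibitor for full effect.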

Protein sequences, listed by entry. Tags and fused reporters are not part of them.
UniProt P27695, whole entry, looked up: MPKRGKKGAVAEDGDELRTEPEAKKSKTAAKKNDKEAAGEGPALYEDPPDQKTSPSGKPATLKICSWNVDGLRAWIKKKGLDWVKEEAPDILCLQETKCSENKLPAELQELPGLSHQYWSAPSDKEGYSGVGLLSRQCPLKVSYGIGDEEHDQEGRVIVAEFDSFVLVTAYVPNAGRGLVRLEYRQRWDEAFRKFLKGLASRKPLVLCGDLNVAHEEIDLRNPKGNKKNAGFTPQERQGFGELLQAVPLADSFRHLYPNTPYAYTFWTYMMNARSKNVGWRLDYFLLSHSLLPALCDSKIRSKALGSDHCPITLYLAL

These compounds were tested against DNA repair nuclease/redox regulator APEX1 (Homo sapiens) (UniProt P27695) (assay: qHTS Assay for Inhibitors of the Human Apurinic/apyrimidinic Endonuclease 1 (APE1)). Conditions: recombinant APE1, TAMRA/BHQ-2 abasic DNA cleavage fluorescence; activity change, negative = inhibition: at 65.8 µM (top of the series).
Method in brief: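 Compound pre-exposure to 0.75 nM APE1, 15 min at ambient temperature. Reaction initiated with 50 nM TAMRA/BHQ-2 THF substrate, read immediately in kinetic mode, 525 nm excitation, 598 nm emission.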
In the case of `Cc1ccc(N=Nc2c(O)ccc3n[nH]nc23)cc1`, the “activity change, negative = inhibition” value is reported as inactive: -7.91%.
In the case of `CC(C)(C)OC(=O)C[C@@H]1C/C=C\C[C@@H](CC(=O)N(CCO)Cc2ccccc2)C(=O)NC[C@H](c2ccccc2)OC1=O`, the Potency is reported as inconclusive: 33.6 µM [inhibitor, single point].
For `Clc1nc(Oc2ccccc2)nc(-c2cn(-c3ccccc3)c3ccccc23)n1`, the Potency was inconclusive: 7.08 µM [inhibitor, single point].
With `O=C(CCC1N=C2c3ccccc3N=C(SCC(=O)NCc3ccco3)N2C1=O)NCc1ccco1` (stereo unspecified) the Potency was inconclusive: 31.6 µM [inhibitor, single point].
With `O=[N+]([O-])c1cccc(CSc2ncnc3ccccc23)c1` the Potency was inconclusive: 17.8 µM [inhibitor, partial curve].
`CCCCC/C=C\C\C=C/C=C/C=C/[C@@H](SC[C@H](N)C(=O)O)[C@@H](O)CCCC(=O)O` was tested, and the Potency was inconclusive: 31.6 µM [inhibitor, partial curve].
`CCCC[C@@H]1C[C@H]1C(NC(=O)c1ccco1)c1ccccc1` (stereo partly specified) was tested, and the Potency was inconclusive: 0.316 µM [inhibitor, full curve, poor fit].
In the case of `O=C(COC(=O)c1cccc(S(=O)(=O)N2CCN(c3ccccc3)CC2)c1)NCc1ccco1`, the Potency is reported as inconclusive: 25.1 µM [inhibitor, partial curve].
For `C[C@@H](NC(=O)c1ncn(Cc2ccccc2)c1C(=O)N[C@H](C)c1ccccc1)c1ccccc1`, the Potency was inconclusive: 33.6 µM [inhibitor, single point].
In the case of `Cc1ccc(C(=O)OCC(=O)c2c[nH]c3ccccc23)cc1S(=O)(=O)N1CCCCC1`, the Potency is reported as inconclusive: 20 µM [inhibitor, single point].
With `Cc1ccc(C(=O)NCCSc2c(C)[nH]c3ccccc23)cc1[N+](=O)[O-]` the Potency was inconclusive: 14.1 µM [inhibitor, partial curve].
In the case of `COc1ccc(C(=O)O/N=C(\N)c2ccccc2)cc1`, the “activity change, negative = inhibition” value is reported as inactive: 12.3%.
In the case of `Cc1ccc(-c2cc(C(=O)Nc3cc(C(=O)O)ccc3C)c3ccccc3n2)cc1`, the Potency is reported as inconclusive: 35.5 µM [inhibitor, single point].
For `CCOC(=O)c1sc(=S)n(-c2ccccc2)c1N`, the “activity change, negative = inhibition” value was inactive: 10.6%.
`N#C/C(=C\c1ccc2c(c1)OCO2)C(N)=S` was tested, and the “activity change, negative = inhibition” value was inactive: 9.52%.
In the case of `O=C(Cc1ccccc1)NC(c1ccco1)c1c(O)ccc2ccccc12` (stereo unspecified), the Potency is reported as inconclusive: 39.8 µM [inhibitor, single point].
`Cc1cccc(Cn2nc(C(C)(C)C)cc2C(=O)Nc2ccc(F)cc2)c1` was tested, and the Potency was inconclusive: 0.0562 µM [inhibitor, partial curve].
In the case of `Cc1ccc(NC(=O)/C(Cl)=C\c2ccccc2)cc1`, the Potency is reported as inconclusive: 0.0089 µM [inhibitor, full curve, poor fit].
In the case of `CCOc1ccccc1N(CC(=O)NCC1CCCO1)C(=O)CNS(=O)(=O)c1ccccc1` (stereo unspecified), the Potency is reported as inconclusive: 0.0022 µM [inhibitor, full curve, poor fit].
`CSc1nc(SCC(=O)O)c2sc3nc(-c4ccccc4)c4c(c3c2n1)CCC4` was tested, and the Potency was inconclusive: 10 µM [inhibitor, partial curve].
`O=C(CN(c1ccccc1)S(=O)(=O)c1ccccc1)NCCSCc1ccco1` was tested, and the Potency was active: 7.94 µM.
`COc1cc(/C=C2/C(C)=C(C#N)c3nc(N)c(C#N)c(C)c32)ccc1OCC(=O)O` was tested, and the Potency was inconclusive: 50.1 µM [inhibitor, single point].
`CS(=O)(=O)NCCSCc1ccco1` was tested, and the Potency was inconclusive: 35.5 µM [inhibitor, single point].
For `COc1ccc(CCNc2c3ccccc3nc3ccccc23)cc1OC`, the Potency was inconclusive: 3.98 µM [inhibitor, partial curve, poor fit].
For `COc1ccccc1-n1c(SCC(=O)NCc2ccc3c(c2)OCO3)nc2cc([N+](=O)[O-])ccc21`, the Potency was inconclusive: 22.4 µM [inhibitor, single point].
In the case of `Cc1ccc2c(c1)C(c1ccccc1)CC(=O)O2` (stereo unspecified), the Potency is reported as inconclusive: 39.8 µM [inhibitor, single point].
`Cc1ccccc1/C=N/Nc1nc2ccccc2[nH]1` was tested, and the “activity change, negative = inhibition” value was inactive: 6.67%.
`CCN(CC)c1ccc(/C=C2/C(=O)ON=C2C)cc1` was tested, and the “activity change, negative = inhibition” value was inactive: -2.92%.
For `Cc1nn(Cc2ccc(Cl)c(Cl)c2)c(C)c1NC(=O)c1sc2ccccc2c1Cl`, the “activity change, negative = inhibition” value was inactive: 11.9%.
For `CCCCCCCCCCCCCCCCOC[C@H](COP(=O)([O-])OCC[N+](C)(C)C)OC(=O)CCCCCCCC(=O)O`, the Potency was inconclusive: 28.2 µM [inhibitor, single point].
In the case of `Cc1ccccc1Cn1c(=O)n(CCCC(=O)NCc2ccco2)c(=O)c2sccc21`, the Potency is reported as inconclusive: 0.199 µM [inhibitor, full curve, poor fit].
In the case of `CCN(CC)C(=O)c1ccc(S(=O)(=O)N2CCC(c3nc4ccccc4s3)CC2)cc1`, the Potency is reported as inconclusive: 0.251 µM [inhibitor, full curve, poor fit].
For `N#Cc1c(-c2ccco2)cc(-c2ccccn2)nc1N`, the Potency was inconclusive: 44.7 µM [inhibitor, single point].
In the case of `O=c1cc(NCCc2ccccc2)c2ccccc2o1`, the Potency is reported as inconclusive: 44.7 µM [inhibitor, single point].
For `CS(=O)CSc1nc2c(cc1C#N)CCCC2` (stereo unspecified), the Potency was inconclusive: 3.55 µM [inhibitor, single point].
`Cc1cccc(C)c1NS(=O)(=O)c1ccc2c(c1)C(=O)c1ccccc1C2=O` was tested, and the Potency was inconclusive: 8.91 µM [inhibitor, single point].
With `CC1Cc2ccccc2N1C(=O)COC(=O)c1ccc(Cl)c(S(=O)(=O)N2CCOCC2)c1` (stereo unspecified) the Potency was inconclusive: 21.2 µM [inhibitor, partial curve, poor fit].
For `COc1cc(NC(=O)c2ccc([N+](=O)[O-])cc2)ccc1NC(=O)C(C)C`, the Potency was inconclusive: 44.7 µM [inhibitor, single point].
For `COc1ccc(NC(=O)C2CCC2)cc1S(=O)(=O)N1CCOCC1`, the Potency was inconclusive: 8.44 µM [inhibitor, single point].
In the case of `Cc1ccc2nc(-c3cccc(NS(C)(=O)=O)c3)cc(-c3ccccc3)c2c1`, the “activity change, negative = inhibition” value is reported as inactive: 4.43%.
For `Cc1cc2c(ncn2C)c(NS(=O)(=O)c2ccccc2Cl)c1C`, the “activity change, negative = inhibition” value was inactive: -1.51%.
